The list shows a part of the results. These are further read-outs of the screen, such as a control signal, another cell line or another target. No call is given for them. Most of these compounds were active or inconclusive in the main read-out, so they are no random draw. Potencies come from curve fits of mixed quality, noted in brackets.
Assay: qHTS Assay to Find Inhibitors of Chronic Active B-Cell Receptor Signaling
Details: ABC-DLBCL IkBa-CBG/CBR reporter, luminescence ratio (green luciferase fused to IkBa over red control in TMD8 lymphoma cells), 4 h
Procedure, shortened: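 Compounds up to 46 uM were incubated four hours with TMD8 cells whose green CBG68 luciferase is fused to IkappaBalpha; red CBR luminescence normalised the signal, and concentration-effect curves were fitted to fusion, red and ratio data.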

[1] = measured here: IkBa-CBG green luminescence
[2] = measured here: CBR red luminescence, cell number

| Compound | AC50 [1] | AC50 [2] |
| --- | --- | --- |
| Fc1ccc(/C=N/NC2=Nc3cccc4cccc2c34)cc1 | 25.9 µM [falling, partial curve, poor fit] | – |
| CSCC(O)Cn1[nH]c(=O)c2cc(Cl)c(Cl)cc2c1=O (centres undefined) | – | 11.2 µM [falling, single point] |
| O=C(Nc1ccc(Cl)cc1C(=O)NCc1cccnc1)c1ccc(Cl)cc1Cl | – | 14.6 µM [falling, single point] |
| O=C(CCSc1ccccc1Cl)Nc1cccc([N+](=O)[O-])c1 | – | 2.06 µM [rising, partial curve, poor fit] |
| CCOc1ccc(OCC)c(S(=O)(=O)NCCCN2CCOCC2)c1 | 20.6 µM [falling, single point] | 18.4 µM [rising, single point] |
| O=C(NCc1nc(-c2ccc(C(F)(F)F)cc2)no1)c1cccs1 | – | 35.5 µM [rising, single point] |
| O=C(CSC1=NCCN1)NC1CCCCCC1 | – | 10.3 µM [falling, partial curve] |
| CCOC(=O)c1c(NC(=O)C2=C(C)NC(=S)NC2c2ccc(F)cc2)sc(C)c1C (centres undefined) | – | 16.4 µM [falling, single point] |
| COc1ccc(OC)c(NC(=O)c2cc(OC(C)=O)cc(C(=O)Nc3cc(OC)ccc3OC)c2)c1 | – | 12.6 µM [falling, partial curve] |
| Cc1cccc(OCC(=O)NNC(=O)c2cc3ccccc3oc2=O)c1 | – | 29.1 µM [rising, single point] |
| COc1ccc(Nc2nc(N3CCN(S(C)(=O)=O)CC3)nc3ccccc23)c(OC)c1 | – | 14.1 µM [rising, partial curve, poor fit] |
| O=C(Nc1nnc(-c2cccnc2)s1)c1cccs1 | – | 0.708 µM [falling, full curve] |
| O=C(O)CCSSCCC(=O)O | – | 1.16 µM [falling, partial curve, poor fit] |
| Cc1noc(C)c1CSc1ncnc2sc3c(c12)CCC(C)C3 (centres undefined) | – | 11.6 µM [rising, partial curve, poor fit] |
| CC(=O)Nc1ccc(S(=O)(=O)C(C#N)c2nc3ccccc3nc2NCCCO)cc1 (centres undefined) | – | 1 µM [rising, partial curve, poor fit] |
| CCC(C)[C@H](NC(=O)N1CCCCCC1)C(=O)O (some centres undefined) | – | 6.31 µM [falling, full curve] |
| Cc1cc2ncc(-c3ccc(Cl)cc3)cn2n1 | – | 0.794 µM [rising, partial curve, poor fit] |
| CCN1C(=O)c2cccc3c(NC(=O)c4ccc(S(=O)(=O)N(C)C)cc4)ccc1c23 | 29.1 µM [falling, single point] | – |
| Cc1ccc2[nH]c3c(N4CCN(Cc5ccccc5)CC4)ncnc3c2c1 | – | 18.4 µM [falling, partial curve, poor fit] |
| Cc1ccc2c(c1)C1CN(C)CCC1N2C(=O)COc1ccccc1F (centres undefined) | – | 35.5 µM [falling, single point] |

Structural class: those above with an aryl methoxy group.

| Compound | AC50 [1] | AC50 [2] |
| --- | --- | --- |
| COc1ccc(OC)c(NC(=O)c2cc(OC(C)=O)cc(C(=O)Nc3cc(OC)ccc3OC)c2)c1 | – | 12.6 µM [falling, partial curve] |
| COc1ccc(Nc2nc(N3CCN(S(C)(=O)=O)CC3)nc3ccccc23)c(OC)c1 | – | 14.1 µM [rising, partial curve, poor fit] |

Next entries.

| Compound | AC50 [1] | AC50 [2] |
| --- | --- | --- |
| CCOC(=O)c1c(C)[nH]c(C)c1C(=O)COC(=O)/C=C/c1ccc(OC)cc1 | 16.4 µM [falling, partial curve, poor fit] | 14.6 µM [rising, partial curve] |
| O=C(N[C@H]1CC1c1ccccc1)c1ccc([N+](=O)[O-])cc1 (some centres undefined) | – | 0.316 µM [rising, full curve, poor fit] |
| CC#CC[N+](C)(C)CCCCCCCCCCCC | – | 13 µM [falling, partial curve] |
| CNc1oc(-c2ccco2)nc1C#N | – | 20.6 µM [falling, single point] |
| COCCCn1c(SCC(=O)NNC(=O)c2cccc(O)c2)nnc1-c1ccncc1 | – | 17.8 µM [rising, partial curve, poor fit] |
| CN(C)c1ccc(C2Nc3ccccc3C(=O)N2CCCN2CCOCC2)cc1 (centres undefined) | – | 4.47 µM [falling, full curve, poor fit] |
| Cc1ccc(-c2nnc(CN3CCCCC3C)o2)cc1 (centres undefined) | – | 15.8 µM [rising, single point] |
| COc1ccc(NC(=O)c2cccc(N3C(=O)C4C5C=CC(C5)C4C3=O)c2)cc1 (centres undefined) | – | 10 µM [falling, partial curve] |
| Cc1ccc2nc(NC(=O)CN(C)S(=O)(=O)c3cccc4nsnc34)sc2c1 | – | 25.9 µM [rising, single point] |
| O=S(=O)(NCCNS(=O)(=O)c1c(F)cccc1F)c1ccc2c(c1)OCCO2 | – | 0.58 µM [rising, full curve, poor fit] |
| Cc1cc(OCC(O)CN2CCCC2)ccc1C(C)C (centres undefined) | – | 31.6 µM [falling, single point] |
| CCOC(=O)/C=C1\SCC(=O)N1CCOc1cccc(Br)c1 | – | 15.8 µM [falling, single point] |
| Brc1ccc(-c2ccc(/C=N/Nc3nc4ccccc4[nH]3)o2)cc1 | 18.4 µM [falling, single point] | 8.2 µM [falling, partial curve] |
| O=C(Nc1ccccc1C(=O)NCCCn1ccnc1)c1ccc(Cl)cc1Cl | – | 10.3 µM [falling, partial curve] |
| C/C(=N/NS(=O)(=O)c1ccc(Br)cc1)c1ccc(NC(=O)c2ccc(C)o2)cc1 | – | 14.1 µM [falling, partial curve] |
| CCOC(=O)N1CCN(C(c2cccnc2)c2ccc3cccnc3c2O)CC1 (centres undefined) | – | 6.51 µM [rising, full curve, poor fit] |
| COc1ccc(-n2c(N)c(C#N)c3ccc([N+](=O)[O-])cc3c2=O)cc1 | – | 9.2 µM [falling, partial curve] |
| COc1ccc(-c2cnn3cc(-c4cccc(Cl)c4)cnc23)cc1 | – | 0.631 µM [rising, full curve, poor fit] |
| Oc1ccc(/C=C/c2cc(O)cc(O)c2)cc1 | 18.4 µM [falling, partial curve, poor fit] | 7.08 µM [falling, partial curve] |
| CC(C)(C)[C@@H]1COC(=O)[C@H](Cc2ccc(F)cc2)C/C=C\C[C@@H](CC(=O)NCCO)C(=O)N1 | – | 6.51 µM [falling, single point] |

From PubChem BioAssay AID493014 (National Center for Advancing Translational Sciences (NCATS), 2011)
